Results on 2 substances are retold here after publication PMC5010073.

By UniProt entry, the sequences of proteins in these tests, tags left out.
UniProt Q99PV8: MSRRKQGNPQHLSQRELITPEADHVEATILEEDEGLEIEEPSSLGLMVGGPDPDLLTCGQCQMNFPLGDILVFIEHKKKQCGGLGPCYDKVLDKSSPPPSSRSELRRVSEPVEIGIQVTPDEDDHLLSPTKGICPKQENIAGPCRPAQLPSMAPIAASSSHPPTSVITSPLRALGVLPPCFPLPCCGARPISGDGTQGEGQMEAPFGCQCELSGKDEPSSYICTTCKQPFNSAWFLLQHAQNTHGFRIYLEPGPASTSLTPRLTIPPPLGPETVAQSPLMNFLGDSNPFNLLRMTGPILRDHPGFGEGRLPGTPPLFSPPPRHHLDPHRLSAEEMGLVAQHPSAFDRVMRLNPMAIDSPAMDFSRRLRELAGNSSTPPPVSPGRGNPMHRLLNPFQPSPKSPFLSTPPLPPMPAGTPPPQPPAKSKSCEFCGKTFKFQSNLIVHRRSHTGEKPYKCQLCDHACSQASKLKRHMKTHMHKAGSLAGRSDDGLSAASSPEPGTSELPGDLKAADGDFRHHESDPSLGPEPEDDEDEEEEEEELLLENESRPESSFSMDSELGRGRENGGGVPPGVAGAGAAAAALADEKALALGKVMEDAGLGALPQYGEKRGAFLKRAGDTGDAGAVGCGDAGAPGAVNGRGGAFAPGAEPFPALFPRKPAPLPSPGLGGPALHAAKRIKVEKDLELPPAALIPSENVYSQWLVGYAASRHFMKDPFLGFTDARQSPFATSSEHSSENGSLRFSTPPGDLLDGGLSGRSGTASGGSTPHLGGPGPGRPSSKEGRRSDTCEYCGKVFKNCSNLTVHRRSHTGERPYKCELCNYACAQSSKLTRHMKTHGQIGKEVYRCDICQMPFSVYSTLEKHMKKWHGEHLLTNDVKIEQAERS
UniProt P28033: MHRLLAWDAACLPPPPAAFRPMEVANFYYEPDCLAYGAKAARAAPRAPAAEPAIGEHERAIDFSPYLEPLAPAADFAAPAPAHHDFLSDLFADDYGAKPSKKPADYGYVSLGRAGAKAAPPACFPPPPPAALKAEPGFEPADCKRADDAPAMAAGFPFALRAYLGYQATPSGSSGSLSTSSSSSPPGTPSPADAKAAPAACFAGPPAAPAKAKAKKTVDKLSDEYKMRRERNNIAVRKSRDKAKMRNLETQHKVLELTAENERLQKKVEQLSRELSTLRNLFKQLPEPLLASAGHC

No constants are given. Whether binding was seen depends on the method and setting. In cells and extracts the contact can be indirect. Some results given as binding are weak or reduced against the parent protein; the word gives no strength.

Test [1] addresses BCL11B-3 × FLAG (mouse) (UniProt Q99PV8). The experiment in a line: co-IP; HEK293 cells transfected with Myc-C/EBPβ and BCL11B-3xFLAG; lysed in RIPA buffer (50 mM Tris-HCl pH 8.0, 150 mM NaCl, 0.1% SDS, 0.5% deoxycholate, 1% Triton X-100); IP with anti-FLAG, immunoblot with anti-c-Myc and anti-FLAG.
The target in test [2] is endogenous BCL11B (mouse (endogenous in 3T3-L1)) (UniProt Q99PV8). The experiment in a line: co-IP; endogenous proteins; 3T3-L1 cells differentiated into adipocytes for 24 h, lysed; IP with anti-BCL11B (NB600-262), immunoblot with anti-BCL11B and anti-C/EBP antibodies.

As to Myc-C/EBPβ (from UniProt P28033 1-296), the binding result in test [1] is given as “binds”.
“endogenous C/EBPβ (from UniProt P28033 1-296)”: in test [2], the binding result is “binds”.
